Conditions in all cases: yeast three-hybrid, YBZ-1, SC-Leu-His + 0.5 mM 3-AT, 4 days
Assay [1] addresses T1, PUM1 PUF domain R6-AFS N1043A + Y1044F + Q1047S (Homo sapiens) (UniProt Q14671).
T1 sequence: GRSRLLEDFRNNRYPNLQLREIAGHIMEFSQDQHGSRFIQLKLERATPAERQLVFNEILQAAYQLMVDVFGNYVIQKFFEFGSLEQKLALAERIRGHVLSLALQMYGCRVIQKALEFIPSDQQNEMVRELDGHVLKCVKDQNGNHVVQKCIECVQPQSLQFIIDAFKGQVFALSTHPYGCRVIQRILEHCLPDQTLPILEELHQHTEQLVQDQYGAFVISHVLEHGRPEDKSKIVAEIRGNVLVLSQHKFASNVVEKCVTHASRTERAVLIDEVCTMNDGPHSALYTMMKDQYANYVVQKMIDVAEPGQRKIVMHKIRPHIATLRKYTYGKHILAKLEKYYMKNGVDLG

Assay [2] concerns the target T2, PUM1 PUF domain R6-CHR N1043C + Y1044H + Q1047R (Homo sapiens) (UniProt Q14671).
T2 sequence: T1 sequence with A216C, F217H, S220R

Assay [3] has as its target T3, PUM1 PUF domain R6-CYT N1043C + Q1047T (Homo sapiens) (UniProt Q14671).
T3 sequence: T1 sequence with A216C, F217Y, S220T

In assay [4] the target is T4, PUM1 PUF domain R6-GFM N1043G + Y1044F + Q1047M (Homo sapiens) (UniProt Q14671).
T4 sequence: T1 sequence with A216G, S220M

The target in assay [5] is T5, PUM1 PUF domain R6-GWQ N1043G + Y1044W (Homo sapiens) (UniProt Q14671).
T5 sequence: T1 sequence with A216G, F217W, S220Q

Assay [6] has as its target T6, PUM1 PUF domain R6-IWR N1043I + Y1044W + Q1047R (Homo sapiens) (UniProt Q14671).
T6 sequence: T1 sequence with A216I, F217W, S220R

For assay [7], the target named is T7, PUM1 PUF domain R6-RHR N1043R + Y1044H + Q1047R (Homo sapiens) (UniProt Q14671).
T7 sequence: T1 sequence with A216R, F217H, S220R

The target in assay [8] is T8, PUM1 PUF domain R6-RYG N1043R + Q1047G (Homo sapiens) (UniProt Q14671).
T8 sequence: T1 sequence with A216R, F217Y, S220G

For assay [9], the target named is T9, PUM1 PUF domain R6-RYR N1043R + Q1047R (Homo sapiens) (UniProt Q14671).
T9 sequence: T1 sequence with A216R, F217Y, S220R

For assay [10], the target named is T10, PUM1 PUF domain R6-VWR N1043V + Y1044W + Q1047R (Homo sapiens) (UniProt Q14671).
T10 sequence: T1 sequence with A216V, F217W, S220R

For assay [11], the target named is T11, PUM1 PUF domain R6-VYR N1043V + Q1047R (Homo sapiens) (UniProt Q14671).
T11 sequence: T1 sequence with A216V, F217Y, S220R

For assay [12], the target named is T12, PUM1 PUF domain R6-YWR N1043Y + Y1044W + Q1047R (Homo sapiens) (UniProt Q14671).
T12 sequence: T1 sequence with A216Y, F217W, S220R

The target of assay [13] is T13, PUM1 PUF domain R8-RWR N1122R + Y1123W + Q1126R (UniProt Q14671).
T13 sequence: T1 sequence with A216N, F217Y, S220Q, N295R, Y296W, Q299R

Changes are numbered by the printed parent chain. Some of the results follow. For some of these results: At the low end of the ranking, values are background and their order means little.

For “GGCUAGAACUAGUGGAUCCCCCGGCGCCCGGCGGCUCGAGCCCGGGUAAGUGCAAAUAGUCUGCAUGCCGCCGGGCGCCAUGCCUGCAGGUCGACUCUAGAAAACAUG”, the binding signal (log2 enrichment (interaction score)) is -4.72 in assay [1]; -3.93 in assay [2]; -5.46 in [3]; -3.09 in assay [4]; -3.75 in [5]; -1 in assay [6]. Besides, the binding signal (log2 enrichment (interaction score)) was -3.02 in assay [7]; -3.78 in assay [8]; -2.48 in [9]; -0.92 in [10]; -5.12 in [11]; -4.87 in [12].
“GGCUAGAACUAGUGGAUCCCCCGGCGCCCGGCGGCUCGAGCCCGGGUAAGAGUAAAUAGUCUGCAUGCCGCCGGGCGCCAUGCCUGCAGGUCGACUCUAGAAAACAUG”: in assay [13], the binding signal (log2 enrichment (interaction score)) was under -5.7.

The values above are taken from publication PMC8384837.
